Reference: PMC6685058 (2019)
Where a chain is given by its changes, count along the chain named. Names and notes keep the numbering of the source. These are yes or no findings as the source states them, for the method shown. Some binding calls cover weakened binding; strength is not graded here. Sequences can lack the tags named with a protein.

T1: BD-IMA-3(aa 278–514) (C. elegans) (UniProt Q19969)
T1 sequence: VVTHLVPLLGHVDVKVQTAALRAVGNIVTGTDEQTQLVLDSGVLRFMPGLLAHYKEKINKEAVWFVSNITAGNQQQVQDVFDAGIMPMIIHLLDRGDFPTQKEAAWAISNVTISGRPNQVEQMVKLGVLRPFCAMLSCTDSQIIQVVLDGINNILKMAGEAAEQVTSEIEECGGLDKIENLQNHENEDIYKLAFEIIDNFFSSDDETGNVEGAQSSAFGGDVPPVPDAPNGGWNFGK

B1: AD-CEBP-1(aa 1–319) FL (protein, UniProt Q18909 1-319)
chain: MYSKLNYSHQKGDQALKHPHLVRLQQSEVRGFTDMPNNGASTSSAGSFARQDSLTIAASLQQRDRERHPVDFMETELDLGDYLQVLHDLDVPTDNVDFDDAELQKCNILYDGEHPYEQPELNGYERHVAYGTGYRVPGDYDQDGYKMNCEVKAETPDFGATKTRRAVKRPVPYDDYQKEYSEESSDMTDNDGSVDDSYFEPKSKKTKSAGLENFKPQTRARKYKLKADEEKAEPTYKLKRARNNDAVRKSRKKAKELQDKKEAEHDKMKRRIAELEGLLQSERDARRRDQDTLEQLLRNKGPMKEQRMPQRHILENFNK
B2: AD-CEBP-1(aa 1–319, K204A, K205A, K207A) (protein, UniProt Q18909 1-319)
chain: B1 chain with K204A, K205A, K207A
B3: AD-CEBP-1(aa 1–319, K239A, R240A) (protein, UniProt Q18909 1-319)
chain: B1 chain with K239A, R240A
B4: AD-CEBP-1(aa 1–319, K162A, R164A, K168A, R169A) (protein, UniProt Q18909 1-319)
chain: B1 chain with K162A, R164A, K168A, R169A

Molecular target: T1, BD-IMA-3(aa 278–514) (C. elegans)
Assay: two-hybrid; different yeast two-hybrid system (Clontech); pACT2 and pBTM116 fusions co-transformed into yeast strain L40; dilution series spotted on SD medium lacking leucine, tryptophan and histidine with 10 mM 3-AT; β-galactosidase assays

Binder	binding
B1	binds
B2	binds
B3	binds
B4	no binding
